From paper doi:10.1101/639948
Results are given in words; binding and its absence hold for the method and conditions named. Binding seen in cells or lysates may run through a third protein. Some entries that bind do so weakly or less than the wild type.

Chains of the proteins cited; added tags and fusions are not shown.
UniProt Q8JZN7: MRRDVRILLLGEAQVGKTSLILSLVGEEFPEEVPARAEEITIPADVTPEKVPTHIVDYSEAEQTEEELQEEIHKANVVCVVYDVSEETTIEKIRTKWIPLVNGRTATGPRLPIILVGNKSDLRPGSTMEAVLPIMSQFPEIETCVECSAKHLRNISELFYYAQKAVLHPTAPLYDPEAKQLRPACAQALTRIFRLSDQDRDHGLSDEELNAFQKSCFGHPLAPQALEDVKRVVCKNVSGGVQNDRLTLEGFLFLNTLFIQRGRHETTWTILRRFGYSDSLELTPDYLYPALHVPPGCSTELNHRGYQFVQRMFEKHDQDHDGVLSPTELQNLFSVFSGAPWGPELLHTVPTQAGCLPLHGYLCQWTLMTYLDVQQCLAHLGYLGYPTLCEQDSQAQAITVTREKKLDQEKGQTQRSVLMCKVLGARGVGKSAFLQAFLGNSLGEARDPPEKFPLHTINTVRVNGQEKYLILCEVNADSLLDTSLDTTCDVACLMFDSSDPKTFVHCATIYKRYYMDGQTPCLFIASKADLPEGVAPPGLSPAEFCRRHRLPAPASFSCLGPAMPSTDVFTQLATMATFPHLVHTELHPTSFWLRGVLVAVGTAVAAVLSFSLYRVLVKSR
UniProt Q8IXI2: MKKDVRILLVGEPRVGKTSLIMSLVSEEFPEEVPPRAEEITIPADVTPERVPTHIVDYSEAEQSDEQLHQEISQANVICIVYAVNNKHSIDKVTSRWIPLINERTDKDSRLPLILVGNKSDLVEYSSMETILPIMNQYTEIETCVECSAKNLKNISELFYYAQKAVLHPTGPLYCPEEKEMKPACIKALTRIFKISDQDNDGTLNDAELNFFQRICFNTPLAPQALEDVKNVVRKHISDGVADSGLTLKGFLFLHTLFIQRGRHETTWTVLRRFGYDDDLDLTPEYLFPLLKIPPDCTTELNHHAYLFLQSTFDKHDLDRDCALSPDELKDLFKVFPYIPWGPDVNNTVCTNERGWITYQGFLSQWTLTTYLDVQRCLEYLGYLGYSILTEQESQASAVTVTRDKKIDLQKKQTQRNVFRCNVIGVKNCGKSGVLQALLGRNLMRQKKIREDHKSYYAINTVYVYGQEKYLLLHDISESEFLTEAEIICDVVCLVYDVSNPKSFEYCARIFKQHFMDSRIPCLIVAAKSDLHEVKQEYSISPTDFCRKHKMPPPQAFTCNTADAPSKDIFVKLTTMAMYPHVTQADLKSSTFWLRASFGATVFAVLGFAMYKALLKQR
UniProt Q8IXI1: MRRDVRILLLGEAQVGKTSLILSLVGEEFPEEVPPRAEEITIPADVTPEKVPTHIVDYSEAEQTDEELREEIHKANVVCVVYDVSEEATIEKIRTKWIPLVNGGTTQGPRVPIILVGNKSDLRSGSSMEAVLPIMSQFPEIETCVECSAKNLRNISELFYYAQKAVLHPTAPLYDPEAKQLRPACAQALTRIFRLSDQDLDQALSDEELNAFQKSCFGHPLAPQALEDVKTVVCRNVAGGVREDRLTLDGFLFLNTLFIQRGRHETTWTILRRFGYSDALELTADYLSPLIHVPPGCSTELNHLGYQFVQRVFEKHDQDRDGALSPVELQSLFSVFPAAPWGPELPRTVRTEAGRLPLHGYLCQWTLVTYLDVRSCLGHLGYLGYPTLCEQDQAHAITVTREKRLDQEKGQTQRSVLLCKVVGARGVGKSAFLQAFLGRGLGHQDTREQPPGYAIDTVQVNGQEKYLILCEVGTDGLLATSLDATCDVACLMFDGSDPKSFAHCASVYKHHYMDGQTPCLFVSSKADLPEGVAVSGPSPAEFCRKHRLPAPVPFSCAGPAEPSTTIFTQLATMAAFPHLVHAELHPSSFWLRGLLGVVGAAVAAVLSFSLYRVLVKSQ

Tests used:
Test in all cases: co-IP
[1] = target: T1, Mic19/CHCHD3 (mouse (endogenous in MEF)) (UniProt Q9CRB9)
T1 sequence: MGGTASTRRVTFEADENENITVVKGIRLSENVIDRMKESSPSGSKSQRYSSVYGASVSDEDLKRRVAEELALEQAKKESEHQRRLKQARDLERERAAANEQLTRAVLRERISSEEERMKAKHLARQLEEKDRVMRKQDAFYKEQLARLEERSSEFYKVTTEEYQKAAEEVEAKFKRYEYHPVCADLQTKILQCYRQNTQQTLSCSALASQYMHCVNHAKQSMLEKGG

[2] = target: Miro2 (mouse (endogenous in brain and MEF)) (UniProt Q8JZN7)
GFPMiro1 = GFPMiro1 (UniProt Q8IXI2)
GFPMiro2 = GFPMiro2 (UniProt Q8IXI1)
[3] = target: T2, Sam50 (mouse (endogenous in brain and MEF)) (UniProt Q8BGH2)
T2 sequence: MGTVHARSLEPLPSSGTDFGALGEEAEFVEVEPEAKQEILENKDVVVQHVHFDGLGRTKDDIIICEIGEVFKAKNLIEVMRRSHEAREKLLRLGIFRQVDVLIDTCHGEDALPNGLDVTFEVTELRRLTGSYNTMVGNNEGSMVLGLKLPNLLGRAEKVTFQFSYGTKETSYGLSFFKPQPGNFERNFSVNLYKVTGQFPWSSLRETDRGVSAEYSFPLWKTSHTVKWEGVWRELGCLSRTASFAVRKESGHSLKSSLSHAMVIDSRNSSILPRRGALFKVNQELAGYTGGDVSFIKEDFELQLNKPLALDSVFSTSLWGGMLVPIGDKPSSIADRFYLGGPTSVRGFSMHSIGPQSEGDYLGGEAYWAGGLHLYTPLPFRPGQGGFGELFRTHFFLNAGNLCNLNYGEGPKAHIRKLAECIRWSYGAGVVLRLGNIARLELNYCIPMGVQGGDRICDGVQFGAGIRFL

GFPMiro1, Q8IXI2 = conditions: remark: other sources report otherwise
GFPMiro2, Q8IXI1 = conditions: remark: other sources report otherwise

B1: Sam50 (protein, UniProt Q8BGH2 1-469)
chain: T2 sequence
With B1 the binding [1] was “binds” and the binding [2] was “binds”.

B2: Sam50 (protein, UniProt Q9Y512 1-469)
chain: MGTVHARSLEPLPSSGPDFGGLGEEAEFVEVEPEAKQEILENKDVVVQHVHFDGLGRTKDDIIICEIGDVFKAKNLIEVMRKSHEAREKLLRLGIFRQVDVLIDTCQGDDALPNGLDVTFEVTELRRLTGSYNTMVGNNEGSMVLGLKLPNLLGRAEKVTFQFSYGTKETSYGLSFFKPRPGNFERNFSVNLYKVTGQFPWSSLRETDRGMSAEYSFPIWKTSHTVKWEGVWRELGCLSRTASFAVRKESGHSLKSSLSHAMVIDSRNSSILPRRGALLKVNQELAGYTGGDVSFIKEDFELQLNKQLIFDSVFSASFWGGMLVPIGDKPSSIADRFYLGGPTSIRGFSMHSIGPQSEGDYLGGEAYWAGGLHLYTPLPFRPGQGGFGELFRTHFFLNAGNLCNLNYGEGPKAHIRKLAECIRWSYGAGIVLRLGNIARLELNYCVPMGVQTGDRICDGVQFGAGIRFL
B2 was tested, and the binding (GFPMiro1) was “binds” and the binding (GFPMiro2) was “binds”.

B3: Mic19/CHCHD3 (protein, UniProt Q9CRB9 1-227)
chain: T1 sequence
In the case of B3, the binding [3] is reported as “binds”.

B4: Mtx1, Q13505 1-466 (protein)
chain: MLLGGPPRSPRSGTSPKGPWSSTGHVQFGKSPQTWPRRTRPRSPEPAAPSGVRGSTWTRRRDSPRRAGPTALSRYVGHLWMGRRPPSPEARGPVPRSSAASRARRSLASPGISPGPLTATIGGAVAGGGPRQGRAEAHKEVFPGQRVGKMAAPMELFCWSGGWGLPSVDLDSLAVLTYARFTGAPLKVHKISNPWQSPSGTLPALRTSHGEVISVPHKIITHLRKEKYNADYDLSARQGADTLAFMSLLEEKLLPVLVHTFWIDTKNYVEVTRKWYAEAMPFPLNFFLPGRMQRQYMERLQLLTGEHRPEDEEELEKELYREARECLTLLSQRLGSQKFFFGDAPASLDAFVFSYLALLLQAKLPSGKLQVHLRGLHNLCAYCTHILSLYFPWDGAEVPPQRQTPAGPETEEEPYRRRNQILSVLAGLAAMVGYALLSGIVSIQRATPARAPGTRTLGMAEEDEEE
In the case of B4, the binding (GFPMiro1, Q8IXI2) is reported as “no binding” and the binding (GFPMiro2, Q8IXI1) is reported as “no binding”.
